# Results published in the supplement of paper PMC12819154, “High-throughput peptide-centric local stability assay extends protein–ligand identification to membrane proteins, tissues and bacteria” (Nature Structural & Molecular Biology, 2025).
# The chains behind the UniProt entries cited, without tags or fusion partners. Where a name states a change or a piece, a line headed by the entry shows the natural chain unless it says otherwise.
# UniProt Q8R2H9: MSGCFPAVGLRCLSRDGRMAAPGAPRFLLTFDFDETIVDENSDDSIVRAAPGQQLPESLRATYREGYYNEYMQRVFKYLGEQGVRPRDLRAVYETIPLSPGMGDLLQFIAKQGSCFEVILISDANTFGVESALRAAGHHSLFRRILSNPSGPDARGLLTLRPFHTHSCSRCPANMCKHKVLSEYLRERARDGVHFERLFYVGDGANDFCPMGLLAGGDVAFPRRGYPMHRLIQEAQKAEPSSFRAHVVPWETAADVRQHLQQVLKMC
# UniProt Q8K2U2: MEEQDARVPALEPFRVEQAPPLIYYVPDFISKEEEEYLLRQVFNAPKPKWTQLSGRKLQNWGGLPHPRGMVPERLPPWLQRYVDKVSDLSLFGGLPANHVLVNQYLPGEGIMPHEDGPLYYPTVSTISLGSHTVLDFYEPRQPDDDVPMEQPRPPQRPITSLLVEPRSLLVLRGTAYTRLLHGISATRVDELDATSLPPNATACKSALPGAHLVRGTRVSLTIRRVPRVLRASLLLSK
# UniProt Q8R0K4: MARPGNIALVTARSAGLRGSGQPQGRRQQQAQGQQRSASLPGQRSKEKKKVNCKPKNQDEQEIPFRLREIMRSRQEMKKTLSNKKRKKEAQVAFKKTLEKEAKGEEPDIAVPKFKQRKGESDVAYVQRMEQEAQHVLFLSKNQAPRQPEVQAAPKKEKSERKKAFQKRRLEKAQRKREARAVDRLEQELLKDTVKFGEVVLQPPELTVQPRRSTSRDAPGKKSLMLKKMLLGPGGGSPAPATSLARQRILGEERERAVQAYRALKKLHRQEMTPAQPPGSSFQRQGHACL
# UniProt Q8R2N0: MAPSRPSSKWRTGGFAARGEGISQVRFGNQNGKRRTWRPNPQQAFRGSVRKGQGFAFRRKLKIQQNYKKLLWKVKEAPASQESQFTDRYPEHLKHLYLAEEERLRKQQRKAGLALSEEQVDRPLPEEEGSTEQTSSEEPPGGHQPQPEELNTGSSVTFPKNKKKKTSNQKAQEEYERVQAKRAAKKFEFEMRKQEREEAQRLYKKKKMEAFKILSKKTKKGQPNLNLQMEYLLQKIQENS
# UniProt Q8QZY2: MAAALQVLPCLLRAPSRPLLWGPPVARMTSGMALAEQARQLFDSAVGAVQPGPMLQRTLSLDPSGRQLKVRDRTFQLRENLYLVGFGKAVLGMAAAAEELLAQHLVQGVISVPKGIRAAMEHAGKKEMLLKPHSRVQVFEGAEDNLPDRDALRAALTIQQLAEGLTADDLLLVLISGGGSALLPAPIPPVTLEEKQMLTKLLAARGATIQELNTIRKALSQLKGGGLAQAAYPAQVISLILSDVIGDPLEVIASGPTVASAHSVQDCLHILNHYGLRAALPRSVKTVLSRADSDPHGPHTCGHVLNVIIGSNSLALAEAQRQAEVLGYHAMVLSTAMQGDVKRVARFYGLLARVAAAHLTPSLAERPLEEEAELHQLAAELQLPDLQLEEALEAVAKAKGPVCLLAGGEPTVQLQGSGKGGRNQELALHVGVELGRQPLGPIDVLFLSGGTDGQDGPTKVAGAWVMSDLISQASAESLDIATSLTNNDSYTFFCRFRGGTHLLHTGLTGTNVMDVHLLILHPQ
# UniProt Q8K2V6: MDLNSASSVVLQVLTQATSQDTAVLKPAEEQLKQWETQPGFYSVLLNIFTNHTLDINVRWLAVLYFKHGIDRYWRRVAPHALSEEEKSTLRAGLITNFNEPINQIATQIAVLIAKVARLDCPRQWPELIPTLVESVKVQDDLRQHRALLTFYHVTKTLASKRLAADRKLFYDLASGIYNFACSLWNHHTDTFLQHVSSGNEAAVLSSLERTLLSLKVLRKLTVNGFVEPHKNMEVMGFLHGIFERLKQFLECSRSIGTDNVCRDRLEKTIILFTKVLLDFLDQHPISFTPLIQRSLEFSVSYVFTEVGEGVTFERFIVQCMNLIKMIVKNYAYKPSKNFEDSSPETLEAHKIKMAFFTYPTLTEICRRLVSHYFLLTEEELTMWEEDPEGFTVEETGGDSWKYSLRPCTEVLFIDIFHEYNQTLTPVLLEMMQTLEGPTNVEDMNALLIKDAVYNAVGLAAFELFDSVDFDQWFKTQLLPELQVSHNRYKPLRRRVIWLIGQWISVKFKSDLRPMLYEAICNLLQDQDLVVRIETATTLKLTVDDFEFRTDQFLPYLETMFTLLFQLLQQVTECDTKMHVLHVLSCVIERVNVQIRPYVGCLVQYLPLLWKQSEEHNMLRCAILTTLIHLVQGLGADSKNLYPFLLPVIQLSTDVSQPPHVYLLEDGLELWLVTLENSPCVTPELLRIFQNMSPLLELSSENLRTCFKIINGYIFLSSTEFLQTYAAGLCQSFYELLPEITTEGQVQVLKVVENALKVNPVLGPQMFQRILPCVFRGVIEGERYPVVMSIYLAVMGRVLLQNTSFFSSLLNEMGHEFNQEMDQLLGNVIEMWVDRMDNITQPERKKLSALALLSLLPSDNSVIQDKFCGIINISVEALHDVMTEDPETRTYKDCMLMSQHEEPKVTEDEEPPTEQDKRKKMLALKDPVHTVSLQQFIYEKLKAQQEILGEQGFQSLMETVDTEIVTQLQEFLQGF
# UniProt Q8R0Y6: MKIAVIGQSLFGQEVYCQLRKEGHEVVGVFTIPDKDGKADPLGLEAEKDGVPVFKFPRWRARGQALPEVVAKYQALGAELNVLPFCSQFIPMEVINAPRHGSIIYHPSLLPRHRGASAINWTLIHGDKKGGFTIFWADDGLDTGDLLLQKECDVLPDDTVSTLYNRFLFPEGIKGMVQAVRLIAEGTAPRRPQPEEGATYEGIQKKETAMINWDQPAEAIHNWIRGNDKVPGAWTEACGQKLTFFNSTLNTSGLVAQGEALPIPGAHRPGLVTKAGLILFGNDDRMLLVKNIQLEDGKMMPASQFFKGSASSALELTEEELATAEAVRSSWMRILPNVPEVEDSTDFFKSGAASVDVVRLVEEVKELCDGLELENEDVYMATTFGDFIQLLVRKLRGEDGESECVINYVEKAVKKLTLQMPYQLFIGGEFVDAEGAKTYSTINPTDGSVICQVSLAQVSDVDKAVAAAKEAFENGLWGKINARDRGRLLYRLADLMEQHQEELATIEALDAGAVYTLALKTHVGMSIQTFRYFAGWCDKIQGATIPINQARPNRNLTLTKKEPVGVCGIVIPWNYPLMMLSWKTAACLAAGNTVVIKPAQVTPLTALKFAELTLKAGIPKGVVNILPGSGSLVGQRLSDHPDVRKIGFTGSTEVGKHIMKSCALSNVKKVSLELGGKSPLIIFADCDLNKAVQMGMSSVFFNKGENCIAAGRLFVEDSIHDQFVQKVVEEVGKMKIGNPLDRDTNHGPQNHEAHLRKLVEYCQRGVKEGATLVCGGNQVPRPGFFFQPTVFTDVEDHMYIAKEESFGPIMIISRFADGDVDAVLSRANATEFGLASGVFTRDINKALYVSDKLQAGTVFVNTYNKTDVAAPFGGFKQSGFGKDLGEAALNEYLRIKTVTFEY
# UniProt Q8R1B4, whole entry: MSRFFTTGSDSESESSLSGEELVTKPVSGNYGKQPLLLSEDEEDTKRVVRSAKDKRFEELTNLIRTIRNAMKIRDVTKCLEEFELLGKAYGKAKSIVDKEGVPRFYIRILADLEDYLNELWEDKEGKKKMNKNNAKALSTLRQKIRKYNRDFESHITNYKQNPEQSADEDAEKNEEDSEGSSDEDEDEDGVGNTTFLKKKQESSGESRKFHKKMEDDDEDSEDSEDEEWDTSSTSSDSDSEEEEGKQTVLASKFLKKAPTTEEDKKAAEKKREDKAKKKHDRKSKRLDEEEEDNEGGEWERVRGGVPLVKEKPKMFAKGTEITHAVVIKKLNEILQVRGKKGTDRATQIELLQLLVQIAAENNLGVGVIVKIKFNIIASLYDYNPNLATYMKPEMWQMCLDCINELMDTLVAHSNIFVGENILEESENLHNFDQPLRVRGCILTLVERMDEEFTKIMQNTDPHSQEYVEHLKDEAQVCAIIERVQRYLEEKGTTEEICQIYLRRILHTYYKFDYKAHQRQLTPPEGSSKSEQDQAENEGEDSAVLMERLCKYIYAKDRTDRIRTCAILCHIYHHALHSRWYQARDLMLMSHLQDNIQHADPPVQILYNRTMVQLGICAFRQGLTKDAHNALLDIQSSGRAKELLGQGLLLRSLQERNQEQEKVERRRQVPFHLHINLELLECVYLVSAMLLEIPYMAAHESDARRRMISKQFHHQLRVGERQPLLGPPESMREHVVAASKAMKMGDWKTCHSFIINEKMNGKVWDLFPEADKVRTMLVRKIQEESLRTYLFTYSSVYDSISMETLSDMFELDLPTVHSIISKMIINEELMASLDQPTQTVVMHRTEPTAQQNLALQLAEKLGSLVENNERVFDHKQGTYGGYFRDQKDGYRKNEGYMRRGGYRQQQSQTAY
# UniProt Q8K288: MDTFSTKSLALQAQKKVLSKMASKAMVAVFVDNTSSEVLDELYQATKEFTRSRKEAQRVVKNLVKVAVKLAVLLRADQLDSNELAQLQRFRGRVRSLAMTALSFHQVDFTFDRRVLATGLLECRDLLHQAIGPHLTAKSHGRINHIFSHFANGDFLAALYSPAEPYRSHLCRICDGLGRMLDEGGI
# UniProt Q8K4Q0, whole entry: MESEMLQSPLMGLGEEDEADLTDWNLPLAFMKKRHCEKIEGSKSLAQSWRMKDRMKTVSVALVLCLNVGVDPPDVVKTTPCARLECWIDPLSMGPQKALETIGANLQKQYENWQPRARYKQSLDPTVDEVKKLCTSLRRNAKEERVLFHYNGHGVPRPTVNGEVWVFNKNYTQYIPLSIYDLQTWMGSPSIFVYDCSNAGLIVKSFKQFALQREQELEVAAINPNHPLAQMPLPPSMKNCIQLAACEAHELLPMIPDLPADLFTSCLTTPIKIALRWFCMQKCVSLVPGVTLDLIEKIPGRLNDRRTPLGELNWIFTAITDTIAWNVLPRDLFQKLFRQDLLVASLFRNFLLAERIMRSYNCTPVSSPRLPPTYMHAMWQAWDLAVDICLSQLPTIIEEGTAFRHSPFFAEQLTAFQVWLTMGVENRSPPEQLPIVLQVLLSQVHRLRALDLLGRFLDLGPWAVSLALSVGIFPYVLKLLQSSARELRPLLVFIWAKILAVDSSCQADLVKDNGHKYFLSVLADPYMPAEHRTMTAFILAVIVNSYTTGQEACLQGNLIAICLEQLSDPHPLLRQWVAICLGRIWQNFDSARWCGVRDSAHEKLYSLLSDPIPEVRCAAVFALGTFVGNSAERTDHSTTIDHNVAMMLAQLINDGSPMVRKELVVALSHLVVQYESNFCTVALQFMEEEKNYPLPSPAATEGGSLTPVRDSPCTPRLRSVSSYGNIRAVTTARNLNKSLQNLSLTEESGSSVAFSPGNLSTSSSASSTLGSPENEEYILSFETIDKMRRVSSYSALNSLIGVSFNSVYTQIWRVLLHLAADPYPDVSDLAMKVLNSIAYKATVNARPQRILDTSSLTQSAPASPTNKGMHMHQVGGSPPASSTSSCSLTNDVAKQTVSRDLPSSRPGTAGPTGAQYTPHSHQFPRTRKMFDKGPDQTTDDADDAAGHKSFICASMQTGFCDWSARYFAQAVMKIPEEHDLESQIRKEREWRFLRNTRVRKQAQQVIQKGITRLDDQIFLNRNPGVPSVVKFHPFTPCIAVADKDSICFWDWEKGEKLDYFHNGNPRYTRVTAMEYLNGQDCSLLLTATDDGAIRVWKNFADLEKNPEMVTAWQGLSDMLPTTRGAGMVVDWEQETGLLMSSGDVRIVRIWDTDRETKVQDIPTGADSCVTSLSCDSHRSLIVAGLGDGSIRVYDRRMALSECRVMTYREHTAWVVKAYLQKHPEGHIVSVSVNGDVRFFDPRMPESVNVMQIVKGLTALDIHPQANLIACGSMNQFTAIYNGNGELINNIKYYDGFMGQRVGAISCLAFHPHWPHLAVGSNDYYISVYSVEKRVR
# UniProt Q8K207: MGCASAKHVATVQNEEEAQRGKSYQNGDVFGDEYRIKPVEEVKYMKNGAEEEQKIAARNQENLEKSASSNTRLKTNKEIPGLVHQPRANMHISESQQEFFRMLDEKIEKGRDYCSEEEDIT
# UniProt Q8R043: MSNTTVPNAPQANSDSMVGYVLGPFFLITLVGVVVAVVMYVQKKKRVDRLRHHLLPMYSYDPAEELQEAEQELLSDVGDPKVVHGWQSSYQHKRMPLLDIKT
# UniProt Q8R016: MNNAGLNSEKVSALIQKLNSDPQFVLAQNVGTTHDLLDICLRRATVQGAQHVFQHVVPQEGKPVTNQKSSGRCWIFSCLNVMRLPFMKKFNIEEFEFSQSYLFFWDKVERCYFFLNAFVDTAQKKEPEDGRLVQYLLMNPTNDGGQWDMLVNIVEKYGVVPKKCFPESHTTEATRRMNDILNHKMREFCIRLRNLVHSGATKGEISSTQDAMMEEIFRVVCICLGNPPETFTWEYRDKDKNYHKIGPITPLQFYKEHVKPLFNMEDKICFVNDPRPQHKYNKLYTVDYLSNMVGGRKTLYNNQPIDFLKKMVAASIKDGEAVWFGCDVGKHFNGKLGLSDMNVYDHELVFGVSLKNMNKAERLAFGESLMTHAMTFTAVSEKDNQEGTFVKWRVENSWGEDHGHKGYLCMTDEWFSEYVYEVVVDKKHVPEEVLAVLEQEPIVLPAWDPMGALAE
# The other results are listed elsewhere or left out. Most values lie at the level of the controls, where differences are scatter.
# Compound: CN[C@@H]1C[C@H]2O[C@@](C)([C@@H]1OC)n1c3ccccc3c3c4c(c5c6ccccc6n2c5c31)C(=O)NC4 [staurosporine]
# Assay: log2 fold change of tryptic peptide abundance, ligand vs vehicle (limited proteolysis) (log2 ratio); higher = more trypsin-susceptible (destabilized)
# Conditions: ligand concentration: 20 uM; sample: mouse liver crude lysate; replicate design: treated separately
row,Target,log2 fold change
1,"UniProt Q8K1H1 (peptide sequence: QPGFASDYSISR, peptide start residue: 125)",0.163
2,"UniProt Q8R2H9 (peptide sequence: QHLQQVLK, peptide start residue: 258)",-0.444
3,"UniProt Q8K2U2 (peptide sequence: GMVPERLPPWLQR, peptide start residue: 69)",0.515
4,"UniProt Q8K2B3 (peptide sequence: GEGGILINSQGER, peptide start residue: 313)",-0.19
5,"UniProt Q8K3X4 (peptide sequence: RPGSVSSTDQER, peptide start residue: 310)",-0.844
6,"UniProt Q8K245 (peptide sequence: QSSTFGGADGGFSAGIPSPDKVHR, peptide start residue: 480)",0.216
7,"UniProt Q8R0K4 (peptide sequence: AVDRLEQELLKDTVK, peptide start residue: 181)",-0.297
8,"UniProt Q8K3K8 (peptide sequence: ENNDIEEGGSR, peptide start residue: 505)",0.464
9,"UniProt Q8R2R6 (peptide sequence: GLSNVLFTNCVKDENIK, peptide start residue: 103)",0.204
10,"UniProt Q8K2A1 (peptide sequence: ISFCADDKTDKR, peptide start residue: 98)",-0.325
11,"UniProt Q8K136 (peptide sequence: APHYNSCCRR, peptide start residue: 120)",-0.206
12,"UniProt Q8R2N0 (peptide sequence: VKEAPASQESQFTDRYPEHLK, peptide start residue: 74)",-0.353
13,"UniProt Q8K4H1 (peptide sequence: EFYETLLR, peptide start residue: 257)",-0.0896
14,"UniProt Q8QZY2 (peptide sequence: TLSLDPSGR, peptide start residue: 58)",-0.101
15,"UniProt Q8R173 (peptide sequence: KTKWMNMK, peptide start residue: 262)",-0.0406
16,"UniProt Q8K2V6 (peptide sequence: TYKDCMLMSQHEEPK, peptide start residue: 890)",0.887

row,Target,log2 fold change
1,"UniProt Q8K1R3 (peptide sequence: AVTVDLGHR, peptide start residue: 46)",0.25
2,"UniProt Q8R0Y6 (peptide sequence: HRGASAINWTLIHGDKK, peptide start residue: 113)",-1.06
3,"UniProt Q8K114 (peptide sequence: HGFSDIKVEDTAK, peptide start residue: 601)",-0.237
4,"UniProt Q8R1B4 (peptide sequence: ELLGQGLLLR, peptide start residue: 642)",0.189
5,"UniProt Q8K1A6 (peptide sequence: AQLEQGGAALR, peptide start residue: 884)",0.5
6,"UniProt Q8K2D3 (peptide sequence: NVHQRPTVALLCGPHVK, peptide start residue: 330)",-0.12
7,"UniProt Q8K288 (peptide sequence: SLALQAQKK, peptide start residue: 8)",-0.196
8,"UniProt Q8K4Q0 (peptide sequence: YYDGFMGQR, peptide start residue: 1292)",0.169
9,"UniProt Q8N7N5 (peptide sequence: MSNKRPNTTDGR, peptide start residue: 1)",-0.522
10,"UniProt Q8R0Z5 (peptide sequence: SAGGVAGGPAAGPGR, peptide start residue: 7)",0.16
11,"UniProt Q8K409 (peptide sequence: NEDKLNHHQR, peptide start residue: 128)",-0.824
12,"UniProt Q8K207 (peptide sequence: EIPGLVHQPR, peptide start residue: 78)",0.0424
13,"UniProt Q8R043 (peptide sequence: VVHGWQSSYQHK, peptide start residue: 82)",-0.0476
14,"UniProt Q8R016 (peptide sequence: KTLYNNQPIDFLKK, peptide start residue: 297)",0.305
15,"UniProt Q8R071 (peptide sequence: TYLEEELTK, peptide start residue: 267)",-0.176

# A portion taken from the entries so far, for reference:
row,Target,log2 fold change
9,"UniProt Q8N7N5 (peptide sequence: MSNKRPNTTDGR, peptide start residue: 1)",-0.522
10,"UniProt Q8R0Z5 (peptide sequence: SAGGVAGGPAAGPGR, peptide start residue: 7)",0.16
